# Test results taken from PubChem BioAssay AID330 (DTP/NCI, 2004).
# The list is a part of this screen's results and no random one: it gathers tests that were run many times, whatever their T/C, doses with no T/C, and many T/C values between a quarter and a half above the control. Further doses and runs are listed elsewhere. T/C gives the treated animals as a percentage of the vehicle group. Some doses have a count of surviving animals in place of a T/C: the source files T/C as zero there, which appears to mark a toxic dose or a test without result, not a measured value. Some survivor counts are full or nearly so, which does not show that the dose was tolerated: the source hardly ever lists a survival T/C far under the control, and the zero likely stands for such cases as well. Survivors were counted at the toxicity check, usually on the fifth day, unless a day is given; later deaths do not show. Schedules are NCI's codes, read here as Q, the interval in days (D) or hours (H), X, the number of doses. Some doses were run more than once; the results are listed from low to high. For survival time, this PubChem deposit counts one and a half times the control or more as active, and values a quarter to a half above the control carry no call in these data; other NCI protocols may use other cut-offs. Signs of the kind (2×) stand for listed records that agree. Some T/C values are followed by the survivors on the day toxicity was checked, most often the fifth; without a count, all were alive then.
# System: P388 leukemia ip, CD2F1 mice, survival T/C
# Assay: NCI In Vivo Anticancer Drug Screen. Data for tumor model P388 Leukemia (intraperitoneal) in CD2F1 (CDF1) mice
# Settings: T/C endpoint: median survival time, higher T/C = longer survival
# [1] = dose: 25.0 mg/kg/injection, schedule: Q01DX009 (ip), vehicle: saline with Tween-80
# [2] = dose: 75.0 mg/kg/injection, schedule: Q01DX009 (ip), vehicle: saline with Tween-80
# [3] = dose: 240.0 mg/kg/injection, schedule: Q01DX005 (ip), vehicle: saline with Tween-80
# [4] = dose: 240.0 mg/kg/injection, schedule: Q01DX005 (ip), vehicle: saline
# [5] = dose: 50.0 mg/kg/injection, schedule: Q01DX005 (ip), vehicle: saline with Tween-80
# [6] = dose: 100.0 mg/kg/injection, schedule: Q01DX005 (ip), vehicle: saline with Tween-80
# [7] = dose: 200.0 mg/kg/injection, schedule: Q01DX005 (ip), vehicle: saline with Tween-80
# [8] = dose: 200.0 mg/kg/injection, schedule: Q01DX009 (ip), vehicle: Klucel (hydroxypropylcellulose) (HPC)
# [9] = dose: 200.0 mg/kg/injection, schedule: Q01DX009 (ip), vehicle: saline with Tween-80
# [10] = dose: 12.5 mg/kg/injection, schedule: Q01DX009 (ip), vehicle: Klucel (hydroxypropylcellulose) (HPC)
# [11] = dose: 25.0 mg/kg/injection, schedule: Q01DX009 (ip), vehicle: Klucel (hydroxypropylcellulose) (HPC)
# [12] = dose: 50.0 mg/kg/injection, schedule: Q01DX009 (ip), vehicle: Klucel (hydroxypropylcellulose) (HPC)
# [13] = dose: 100.0 mg/kg/injection, schedule: Q01DX009 (ip), vehicle: Klucel (hydroxypropylcellulose) (HPC)
# [14] = dose: 400.0 mg/kg/injection, schedule: Q01DX005 (ip), vehicle: saline with Tween-80
# [15] = dose: 50.0 mg/kg/injection, schedule: Q01DX009 (ip), vehicle: saline with Tween-80
# [16] = dose: 100.0 mg/kg/injection, schedule: Q01DX009 (ip), vehicle: saline with Tween-80
compound,measurement,setting,value
COc1cccc(-c2nsc(=O)o2)c1,survivor count,"dose: 400.0 mg/kg/injection, schedule: Q01DX009 (ip), vehicle: Klucel (hydroxypropylcellulose) (HPC)",3 of 6
CCCCCCCCOP(=O)(N1CC1C)N1CC1C (stereo not drawn),T/C,[1],131 % of control
same,T/C,"dose: 33.0 mg/kg/injection, schedule: Q01DX009 (ip), vehicle: saline with Tween-80",137 % of control
same,T/C,[2],137 % of control
same,survivor count,"dose: 100.0 mg/kg/injection, schedule: Q04DX003 (ip), vehicle: saline",3 of 6
CCCCCCCCSCc1ccc(Nc2ccc(Nc3ccc(CSCCCCCCCC)cc3)cc2)cc1,T/C,"dose: 200.0 mg/kg/injection, schedule: Q01DX009 (ip), vehicle: acetone",136 % of control
CCN1C(=O)/C(=C/C=C/N(C)c2ccccc2)SC1=S,survivor count,"dose: 200.0 mg/kg/injection, schedule: Q01DX009 (ip), vehicle: saline",6 of 6
CN1C(C(=O)Nc2nccs2)=C(O)c2ccccc2S1(=O)=O,survivor count,[3],3 of 6
CC(=O)C(C[n+]1ccccc1)c1ccccc1 (stereo not drawn),survivor count,"dose: 120.0 mg/kg/injection, schedule: Q01DX005 (ip), vehicle: saline",4 of 6
same,survivor count,[4],0 of 6
O=[C-]/C=C\[C-]=O.[C-]#[O+].[C-]#[O+].[C-]#[O+].[C-]#[O+].[Fe+2],survivor count,[5],0 of 6
same,survivor count,[6],3 of 6
same,survivor count,[7],0 of 6
C=C(C)CC1CN2CCc3cc(OC)c(OC)cc3C2CC1=O (stereo not drawn),T/C,[8],125 % of control
same,T/C,[9],131 % of control
COP(=S)(NC(C)C)Oc1ccc(C)cc1[N+](=O)[O-] (stereo not drawn),survivor count,[1],6 of 6
C=C(C)c1nc2c(=O)nc(N)nc-2n(O)c1C,survivor count,[2],3 of 6
C1=CSC(=C2SC=CS2)S1,T/C,[1],126 % of control
CN(C)C(=S)n1c(=S)nc(N(C)C)sc1=S,survivor count,[7],0 of 6
CCC1(c2ccc(-c3ccccc3)cc2)OC(OC(=O)NC)C=CC1=O (stereo not drawn),T/C,[10],"102, 103, 115 % of control"
same,survivor count,[10],0 of 6
same,T/C,[11],"105, 111 [5 of 6 alive], 140 % of control"
same,survivor count,[11],0 of 6
same,T/C,[12],92 % of control [5 of 6 alive]
same,survivor count,[12],"0 of 6, 4 of 6, 6 of 6"
same,survivor count,[13],0 of 6
same,survivor count,[8],0 of 6
Nc1nc(Cl)c(N=Nc2ccccc2)c(=O)[nH]1,survivor count,"dose: 120.0 mg/kg/injection, schedule: Q01DX005 (ip), vehicle: saline with Tween-80",5 of 6 and 6 of 6
same,survivor count,[3],6 of 6
CN(N=O)C1=NC(C)(CCl)P(=O)(NNc2ncccn2)O1 (stereo not drawn),survivor count,[4],0 of 6
COc1cccc2c1C(=O)c1c(O)c3c(c(O)c1C2=O)C[C@@](O)(C(C)=O)C[C@@H]3OC1CC(NC(C)=O)C(O)C(C)O1 (stereo partly drawn),T/C,"dose: 1.32 mg/kg/injection, schedule: Q01DX009 (ip), vehicle: saline",131 % of control
same,T/C,"dose: 3.0 mg/kg/injection, schedule: Q01DX009 (ip), vehicle: saline",136 % of control
same,T/C,"dose: 4.5 mg/kg/injection, schedule: Q01DX009 (ip), vehicle: saline",136 % of control
CCOC([O-])=N/C(=N/[n+]1ccc(C)cc1)c1ccccc1,survivor count,"dose: 400.0 mg/kg/injection, schedule: Q04DX003 (ip), vehicle: saline",2 of 6
O=C(CCc1ccc(O)c(O)c1)c1ccc(O)c(O)c1O,T/C,"dose: 64.0 mg/kg/injection, schedule: Q01DX009 (ip), vehicle: saline",126 % of control
O=NN(CCCl)C(=O)OCCCSSCCCOC(=O)N(CCCl)N=O,T/C,"dose: 6.25 mg/kg/injection, schedule: Q01DX009 (ip), vehicle: water",127 % of control
same,T/C,"dose: 12.5 mg/kg/injection, schedule: Q01DX009 (ip), vehicle: water",127 % of control
same,T/C,"dose: 25.0 mg/kg/injection, schedule: Q01DX009 (ip), vehicle: water",136 % of control
same,survivor count,"dose: 100.0 mg/kg/injection, schedule: Q01DX009 (ip), vehicle: water",5 of 6
same,survivor count,"dose: 200.0 mg/kg/injection, schedule: Q01DX009 (ip), vehicle: water",0 of 6
CN1[C@@H]2CC[C@H]1CC(O)(c1ccccc1)C2 (stereo partly drawn),survivor count,[6],5 of 6
same,survivor count,[7],0 of 6
CCN(CC)CCNc1ccc(CO)c2oc3ccc(O)cc3c(=O)c12,survivor count,[14],6 of 6
CC(CN(C)C)C(/C=C/c1ccc(F)cc1)=N\Nc1ccccc1 (stereo not drawn),survivor count,[3],0 of 6
COc1ccc(Cc2nc(C)cc3cc(OC)c(OC)cc23)cc1OC,survivor count,"dose: 400.0 mg/kg/injection, schedule: Q01DX009 (ip), vehicle: water",0 of 6
O=[N+]([O-])CC(c1ccccc1)C(C[N+](=O)[O-])c1ccccc1 (stereo not drawn),survivor count,"dose: 25.0 mg/kg/injection, schedule: Q01DX005 (ip), vehicle: saline with Tween-80",5 of 5
same,survivor count,[5],5 of 5
same,survivor count,[7],5 of 5
O=C(Oc1ccccc1)c1cc(O)c(O)c(O)c1,survivor count,[14],0 of 6
N#Cc1ccc(NN=NCCO)cc1,T/C,"dose: 200.0 mg/kg/injection, schedule: Q01DX009 (ip), vehicle: distilled water + Tween-80",128 % of control
CC1(C)COCN1COCCCOCN1COCC1(C)C,T/C,[15],127 % of control
same,T/C,[16],127 % of control
COc1cc(C2c3cc4c(cc3C3OC(=O)C2C3CO)OCO4)cc(OC)c1OC (stereo not drawn),T/C,"dose: 1.0 mg/kg/injection, schedule: Q01DX009 (ip), vehicle: Klucel (hydroxypropylcellulose) (HPC)",140 % of control
same,T/C,"dose: 2.5 mg/kg/injection, schedule: Q01DX009 (ip), vehicle: Klucel (hydroxypropylcellulose) (HPC)",140 % of control
same,T/C,"dose: 5.5 mg/kg/injection, schedule: Q01DX009 (ip), vehicle: Klucel (hydroxypropylcellulose) (HPC)",130 % of control
same,T/C,"dose: 8.0 mg/kg/injection, schedule: Q01DX009 (ip), vehicle: Klucel (hydroxypropylcellulose) (HPC)",137 % of control
same,T/C,[10],127 % of control (2×)
same,T/C,"dose: 18.7 mg/kg/injection, schedule: Q01DX009 (ip), vehicle: Klucel (hydroxypropylcellulose) (HPC)",137 % of control
same,survivor count,[11],5 of 6
same,survivor count,[12],4 of 6
same,survivor count,[13],1 of 6
same,survivor count,[8],0 of 6
O=C(CNC(=O)c1ccccc1)N/N=C/c1ccc2c(c1)OCO2,T/C,[15],"96, 100, 111 % of control"
same,survivor count,[15],6 of 6
same,T/C,[16],"89, 90, 92, 107 % of control"
same,T/C,[9],"91, 104, 127 % of control"
same,survivor count,[9],6 of 6
same,survivor count,"dose: 400.0 mg/kg/injection, schedule: Q01DX009 (ip), vehicle: saline with Tween-80",6 of 6
CN(C)/N=N/c1ccn[nH]1,T/C,"dose: 12.5 mg/kg/injection, schedule: Q01DX009 (ip), vehicle: saline with Tween-80",125 % of control
CN(C)C(=S)NCc1ccccc1,survivor count,"dose: 400.0 mg/kg/injection, schedule: Q04DX003 (ip), vehicle: saline with Tween-80",2 of 6
CC1=C(O)c2ccccc2C(=O)C1=O,survivor count,[15],6 of 6
same,survivor count,[16],3 of 6
C1=C(c2ccccc2)Oc2ccccc2[P+]1(c1ccccc1)c1ccccc1,survivor count,"dose: 6.25 mg/kg/injection, schedule: Q01DX005 (ip), vehicle: Klucel (hydroxypropylcellulose) (HPC)",4 of 5
same,survivor count,"dose: 12.5 mg/kg/injection, schedule: Q01DX005 (ip), vehicle: Klucel (hydroxypropylcellulose) (HPC)",2 of 5
same,survivor count,"dose: 25.0 mg/kg/injection, schedule: Q01DX005 (ip), vehicle: Klucel (hydroxypropylcellulose) (HPC)",0 of 5
same,survivor count,"dose: 50.0 mg/kg/injection, schedule: Q01DX005 (ip), vehicle: Klucel (hydroxypropylcellulose) (HPC)",0 of 5
same,survivor count,"dose: 100.0 mg/kg/injection, schedule: Q01DX005 (ip), vehicle: Klucel (hydroxypropylcellulose) (HPC)",0 of 5
same,survivor count,"dose: 200.0 mg/kg/injection, schedule: Q01DX005 (ip), vehicle: Klucel (hydroxypropylcellulose) (HPC)",0 of 5
